In PubChem BioAssay AID1347423 (Functional Genomics Laboratory (NCATS/FGL), 2020):
The whole screen tested about 52,000 sequences, of which about 210 (0.4%) were called active.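 How the source made its calls: active means gene whose silencing raises cell survival under the drug, median off-target-corrected z-score across its silencing RNAs 2 or more; inactive means the rest.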 The list shows a part of the results.

Assay: Resistance to Poly (ADP-Ribose) Polymerase inhibitor: Gene Identification via Genome-wide siRNA Screen
Conditions: mouse BRCA2 R2336H ES cells, olaparib, CellTiter-Glo viability; hits give high values
How it was run: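 Mouse BRCA2 R2336H ES cells were reverse-transfected with siRNA (20 nM final), treated at 48 h with 500 nM olaparib, and read by CellTiter-Glo after 72 h. Scores: MAD-based z per siRNA, median per gene, seed off-target correction.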
In the case of UGCUGUGGUCACUCCCAUGTT against Olfr457, the z-score is reported as inactive: 0.391. In the case of GGUCCUGGAAUCUCAAAAUTT against Entpd1, the z-score is reported as inactive: -0.282. In the case of CGAUUUAUUGGAGGCGCACTT against Glrx2, the z-score is reported as inactive: -0.129. For GGUCUUACUCCAGUCUGCCTT against Rufy1, the z-score was inactive: -0.0238. With “CCAGAAUUGAACUUCAAGUTT against 2610008E11Rik” the z-score was inactive: 0.365. For GCCCAUUGUAUGACUGCCGTT against Gfra2, the z-score was inactive: -0.73. In the case of CCCUUUCUGUACUCUUAUCTT against Tcfl4, the z-score is reported as inactive: 0.937. For GGACUUGUUCUACAAGUACTT against Sfrs9, the z-score was inactive: -0.25. With GGGAAUUUCGGCUGUUUUATT against Cts8 the z-score was inactive: 0.0412. With AGCUCUAGCAACUAAGCGCTT against LOC382109 the z-score was inactive: 1.07. With “GGUUUGGCCAUCUCCUAUGTT against 0610009O03Rik” the z-score was inactive: 1.61. In the case of GCAGUAUUACAAUAGGAUCTT against Magea9, the z-score is reported as inactive: 0.74. For GGUGACCAAAAUGACUUGUTT against Slc39a3, the z-score was inactive: 2.03. For “CGAUGUGAGUUGCAGAUAUTT against 1700011J10Rik”, the z-score was inactive: -1.35. For GAUACAGAAUGUCUCAUCCTT against Olfr1128, the z-score was inactive: 0.689. For GCGCAGAUGGAUCCUAACATT against Tnfsf11, the z-score was inactive: 1.1. With GGCCUGUGAGUGUGACAAATT against Pla2g2c the z-score was inactive: -0.19. With GGGUCAACCAGCAAAACCUTT against AU021034 the z-score was inactive: -1.15. With GGACGAUUCCCAGUUUCUGTT against Phf1 the z-score was inactive: -0.468. With “CCCGAAUGAUCAAACCAAGTT against 4930555I21Rik” the z-score was inactive: -0.68. In the case of CGAGACCUACAUCUUGAAUTT against Smpd1, the z-score is reported as inactive: 1.51. In the case of CGUAAUUUUGGAAAAGCCUTT against Emb, the z-score is reported as inactive: -1.31. For “GGAGAUUCCCGUGGUUAUUTT against 2410004H05Rik”, the z-score was inactive: 0.0648. For GGCCAUGCCACUCAUCUUUTT against Tpst2, the z-score was inactive: 1.93. In the case of GCAUAGUAAUCUCCGAAUATT against MGC67181, the z-score is reported as inactive: 1.64. For GGAAGAAAGGAAAUGUUGUTT against Ctsh, the z-score was inactive: 0.0426. With GGCUCCAGGAAACAAAGAUTT against Ubtd1 the z-score was inactive: -0.686. For GCCUUCUGCUUAGUUACUGTT against Krtap6-1, the z-score was inactive: 0.793. In the case of CGAUACCCUCACCAGAUUUTT against Limk1, the z-score is reported as inactive: -1.15. In the case of “GGGUACCUUCUGAUGUUUUTT against 2410170E21Rik”, the z-score is reported as inactive: 1.01. With GGGCUUCCUAGUAUUCCACTT against Tuba4 the z-score was inactive: -0.792. With GGAGACUCAGCAGAUUAUUTT against Gzmn the z-score was inactive: 0.315. With GGAUGGCCAAGUAUGAACUTT against Gpr153 the z-score was inactive: -0.53. In the case of “GGAGCUGUGAGCAUUACUGTT against 2610019I03Rik”, the z-score is reported as inactive: -0.497. For GCUAGUAUUAAAGAAGAGCTT against Myh10, the z-score was inactive: 1.52. With “GGUGCCAUUGAUUCUGUAGTT against 6330419J24Rik” the z-score was inactive: -0.789. For GCAACUCUGAGGUUGCUAGTT against Pgam1, the z-score was inactive: 0.414. For GGAACUCCUGACUCUCAGATT against Prss25, the z-score was inactive: 0.231. In the case of GCUUAACUCUAGAGUAUGCTT against Pzp, the z-score is reported as inactive: 0.00253. In the case of GGUCCUUACCUCCAAUCCATT against Fndc5, the z-score is reported as inactive: 1.79. With GGCUGGAAAAAAUUCAGAATT against Mtmr7 the z-score was inactive: -0.171. With CCAUCAUGUAUCAAUGACATT against Olfr867 the z-score was inactive: 0.947. For GGAAGUGGUGGCCAUCAAGTT against Stk25, the z-score was inactive: 2.47. With CCUUCUGAAACCUAGCUCATT against Tradd the z-score was inactive: 0.716. With GGGUCCUCUUUAAAAGGCUTT against Smc6l1 the z-score was inactive: 0.0836. With CCGUGGGAUUUAAGAUAUCTT against Rab34 the z-score was inactive: 1.57. In the case of GGUUAUACCAGUCAUGACATT against BC005537, the z-score is reported as inactive: 0.171. In the case of CCUCGCUAUAGAUUUUAACTT against Art2b, the z-score is reported as inactive: 0.76. For GCUUCAGACCUAUUUACCATT against Wdr26, the z-score was inactive: -2.21. For GGGUGUUUGAAUCUAGUAUTT against Nktr, the z-score was inactive: 0.519. With GGUCCACCUGUGAAUGUGATT against Glra4 the z-score was inactive: -1.36. For GGGAAGUGACCUUCUACAGTT against Ms4a10, the z-score was inactive: 0.418. In the case of CCAAGGGUAUGUCCAUCAUTT against MGC78233, the z-score is reported as inactive: 0.394. In the case of GGCUAACUCCCAUAAAGAUTT against BC026374, the z-score is reported as inactive: 0.185. With GCAGAUUAGCUUCGUCAACTT against Top2a the z-score was inactive: -2.19. In the case of CGAACCUAAGGGUUACUAUTT against Tgfb3, the z-score is reported as inactive: -1.24. In the case of GGCCAAAAGUGUUCUCUACTT against Olfr1101, the z-score is reported as inactive: -0.109. In the case of “CAUCUGUACUACAAACUAATT against 1100001G20Rik”, the z-score is reported as inactive: -0.572. With CCCUACUAUUGACGAAAACTT against Hpn the z-score was inactive: 0.505. With CCCUUACAUCCAUCAACUATT against Dcbld2 the z-score was inactive: -0.65. In the case of GGCACAAGCCAAAGUAUUUTT against Igbp1, the z-score is reported as inactive: 0.0335. For GGAGCAGAAAGAAGAACUGTT against Bmp10, the z-score was inactive: -1.65. With GGCUAUAAAAGCACAGUUUTT against Slc25a26 the z-score was inactive: 0.17. With GGGUAUUUCCACUUCAUAGTT against BC031140 the z-score was inactive: -1.28. With GGAAAUCAACCACUUUCUCTT against Olfr1494 the z-score was inactive: -0.237. In the case of GGAGUAUGCACCACUCAAATT against Acrv1, the z-score is reported as inactive: -0.114. For GGUCCCUGUCAAGACCAAATT against Prap1, the z-score was inactive: 0.589.
